{"source": "PubChem BioAssay AID2685", "about": "(National Center for Advancing Translational Sciences (NCATS), 2010)", "note": "Screen size: about 320,000 compounds; about 2,100 (0.66%) were called active. Inconclusive results, whose numbers are uncertain, are shown with a selection of clear calls. Calls follow the shape of the dose curve; as a rule, active = well fitted inhibition curve with a large enough effect in the signal ratio, with a control signal flat (not every such curve was filed as active); inconclusive = small, poorly fitted or top-dose-only effect, or effect the other way, or a change in a side signal; inactive = flat fitted curve, though single readings scatter; the % refers to the signal ratio. Potencies of inconclusive entries are doubtful fits and often do not repeat. % is scaled to controls: 0 for no effect and ±100 for the full control effect; potency is read from the fitted curve at half-maximal effect."}
{"assay": "qHTS Assay for Lipid Storage Modulators in Drosophila S3 Cells", "settings": "BODIPY lipid droplet fluorescence, 18-24 h, cells fed with added oleic acid; lipid storage change, negative = inhibition: at 46.1 µM (top of the series) unless noted", "outline": "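Drosophila S3 cells loaded with oleic acid (400 uM, as added) and compounds at several concentrations; lipid droplets imaged by 488-nm laser-scanning cytometry, 500–530 nm intensity and object ratio to cell channel. Percent activity normalized to 20 uM Triacsin C.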"}
{"smiles": "COc1cc2c(C(=O)N(C)c3ccc(F)cc3)cn(C)c(=O)c2cc1OC", "lipid storage change, negative = inhibition": "inactive"}
{"smiles": "COc1ccc(C2=CC(=O)C[C@H](c3ccc4c(c3)OCO4)C2)cc1", "lipid storage change, negative = inhibition": "inconclusive: 58.2%"}
{"smiles": "CC(C)(C)C(=O)N1CCN(c2ncccc2C(F)(F)F)CC1", "lipid storage change, negative = inhibition": "inconclusive: 11.2%"}
{"smiles": "CCOc1ccccc1CNC(=O)CCC(=O)N1Cc2ccccc2Oc2ncccc21", "lipid storage change, negative = inhibition": "inactive"}
{"smiles": "O=C(CNC(=O)C(c1ccccc1)c1ccccc1)OCc1ccccc1", "Potency": "inconclusive: 1.84 µM [falling, full curve]"}
{"smiles": "COc1ccc(S(=O)(=O)N2CCC3(CC2)CC(=O)c2ccccc2O3)cc1", "lipid storage change, negative = inhibition": "inconclusive: 35.8%"}
{"smiles": "CCC1CCCCN1C(=O)CSc1nnc(-c2ccc(Cl)s2)o1", "note": "(stereo not drawn)", "lipid storage change, negative = inhibition": "inconclusive: 28.9%"}
{"smiles": "O=C(NCc1ccc2c(c1)OCO2)c1c(F)c(F)c(F)c(F)c1F", "Potency": "inconclusive: 4.11 µM [falling, single point]"}
{"smiles": "Cc1ccc2nc(SCC(=O)c3ccc(Cl)cc3)nc(=O)n2c1", "lipid storage change, negative = inhibition": "inconclusive"}
{"smiles": "CCOC(=O)c1c(C)[nH]c(C(=O)COC(=O)CNC(=O)C2CCCCC2)c1C", "Potency": "inconclusive: 4.11 µM [activator, single point]"}
{"smiles": "Cc1nn(Cc2ccccc2Cl)c(C)c1C(=O)N1CCN(c2ccccc2)CC1", "lipid storage change, negative = inhibition": "inconclusive: 117%"}
{"smiles": "CC(/C=N/NC(=O)c1nnn(-c2nonc2N)c1C(C)C)=C\\c1ccco1", "lipid storage change, negative = inhibition": "inconclusive: -146%"}
{"smiles": "CCCCC[C@H]1CN(CCc2ccccc2)C(=O)[C@@H]1CC(=O)NCc1ccc(OC)cc1", "lipid storage change, negative = inhibition": "inactive"}
{"smiles": "Cc1ccc(Nc2nc(N3CCOCC3)c3ccccc3n2)cc1", "Potency": "inconclusive: 29.1 µM [rising, single point]"}
{"smiles": "O=C(CNCc1ccco1)Nc1cccc(S(=O)(=O)N2CCCCC2)c1", "lipid storage change, negative = inhibition": "inconclusive: 6.68%"}
{"smiles": "O=C(N1CCOCC1)C12CCC3CC(CC(C3)C1)C2", "lipid storage change, negative = inhibition": "inconclusive: -16.1%"}
{"smiles": "CC(C)N(CC(N)=O)c1ccc(S(=O)(=O)N2CCCC2)cn1", "lipid storage change, negative = inhibition": "inconclusive: 23.6%"}
{"smiles": "CN1CCCN(Cc2ccccc2C(F)(F)F)CC1", "lipid storage change, negative = inhibition": "inconclusive: -26%"}
{"smiles": "COC(=O)C1=C(C)Nc2ncnn2C1c1ccc(C)o1", "note": "(stereo not drawn)", "lipid storage change, negative = inhibition": "inconclusive: 36.4%"}
{"smiles": "CCCc1nnc(NC(=O)CNc2ccc(F)cc2)s1", "Potency": "inconclusive: 3.26 µM [activator, full curve]"}
{"smiles": "CC(=O)Nc1ccc(Oc2cc(NC(C)=O)cc([N+](=O)[O-])c2)cc1", "Potency": "inconclusive: 8.2 µM [activator, partial curve]"}
{"smiles": "Cc1ccc(N2C(=O)Nc3ccc(Br)cc3C2(O)C(=O)NCCCN(C)C)cc1C", "note": "(stereo not drawn)", "lipid storage change, negative = inhibition": "inconclusive: 7.68%"}
{"smiles": "C/C(CC(=O)Nc1cccc(Br)c1)=N\\NC(=O)c1ccc(O)cc1O", "lipid storage change, negative = inhibition": "inconclusive: 19.2%"}
{"smiles": "O=S1(=O)CCC(NC(=S)NC2CCS(=O)(=O)C2)C1", "note": "(stereo not drawn)", "lipid storage change, negative = inhibition": "inconclusive: 22.3%"}
{"smiles": "O=[N+]([O-])c1ccc(/C=[N+](\\[O-])[C@@H]2CCCC[C@@H]2/[N+]([O-])=C/c2ccc([N+](=O)[O-])o2)o1", "Potency": "inconclusive: 18.4 µM [falling, partial curve]"}
{"smiles": "O=C(NC(=S)NNC(=O)[C@H]1C[C@@H]1c1ccccc1)c1ccc(F)cc1", "lipid storage change, negative = inhibition": "inconclusive: -18.7%"}
{"smiles": "O=C(CN1CCN(C(=O)c2cccs2)CC1)NC1CCCCC1", "lipid storage change, negative = inhibition": "inconclusive: 14.8%"}
{"smiles": "CC(C)CNC(=S)NNC(=O)CC(C)O", "note": "(stereo not drawn)", "lipid storage change, negative = inhibition": "inconclusive: 14.9%"}
{"smiles": "CC(=O)Nc1cc(C(=O)N2CCc3ccccc3C2)ccc1Sc1ccc(C)cc1", "Potency": "inconclusive: 2.31 µM [activator, partial curve, poor fit]"}
{"smiles": "O=C(CN(C(=O)c1csnn1)c1ccc(F)cc1)NCCc1ccccc1", "lipid storage change, negative = inhibition": "inconclusive: 33.8%"}
{"smiles": "CCc1c(C)nc(N)n2c(SCC(=O)N3CCCC(C)C3)nnc12", "note": "(stereo not drawn)", "lipid storage change, negative = inhibition": "inconclusive: 4.21%"}
{"smiles": "COc1ccc(CCNC(=O)C2CC(=O)N(C3CCCCCCC3)C2)cc1OC", "note": "(stereo not drawn)", "lipid storage change, negative = inhibition": "inconclusive: 5.76%"}
{"smiles": "CN(C)C(=O)CSc1n[nH]c(=O)n1CCc1ccccc1", "lipid storage change, negative = inhibition": "inconclusive: -100%"}
{"smiles": "COc1ccc(OCc2cc(C(=O)N3C[C@H]4CC[C@H]3C4)no2)c(Cl)c1", "lipid storage change, negative = inhibition": "inconclusive: -71.9%"}
{"smiles": "CC1(C)CC[C@]2(C(=O)O)CC[C@]3(C)C(=CC[C@@H]4[C@@]5(C)CC[C@H](O)C(C)(C)[C@@H]5CC[C@]43C)[C@@H]2C1", "lipid storage change, negative = inhibition": "inconclusive: -9.22%"}
{"smiles": "CCc1cc2cc(C)cc(C)c2nc1SCC(=O)N1CCCC1", "lipid storage change, negative = inhibition": "inconclusive: 9.99%"}
{"smiles": "COc1ccc(CN(C)C(=O)c2ccc3c(=O)n4c(nc3c2)CCC4)cc1", "Potency": "inconclusive: 6.51 µM [activator, single point]"}
{"smiles": "COc1ccc(N2CCN(C(=O)COC(=O)/C=C/c3ccc(C(F)(F)F)cc3)CC2)cc1", "lipid storage change, negative = inhibition": "inconclusive"}
{"smiles": "O=C1NC[C@@H](Cc2cccc3ccccc23)N(CCC23CC4CC(CC(C4)C2)C3)C1=O", "lipid storage change, negative = inhibition": "inconclusive: 6.61%"}
{"smiles": "COc1ccc(N2CCN(C(=O)CCCn3c(=O)[nH]c4ccsc4c3=O)CC2)cc1", "lipid storage change, negative = inhibition": "inconclusive: -17.2%"}
{"smiles": "Cc1c(CC(=O)O)c(=O)oc2c(C)c(OCc3ccccc3)ccc12", "lipid storage change, negative = inhibition": "inconclusive: 35.5%"}
{"smiles": "COc1ccc(S(=O)(=O)N(CC(=O)NCc2cccnc2)c2ccc(C)cc2)cc1OC", "Potency": "inconclusive: 0.116 µM [activator, single point]"}
{"smiles": "CC(CC(=O)Nc1ccncc1)c1ccccc1", "note": "(stereo not drawn)", "lipid storage change, negative = inhibition": "inconclusive: -11%"}
{"smiles": "Cc1ccc2nc(Nc3ccc4[nH]c(=O)[nH]c4c3)c(-n3nc(C)cc3C)nc2c1", "lipid storage change, negative = inhibition": "inconclusive: -101%"}
{"smiles": "COc1cccc(/C=N/NC(=O)CC2C(=O)NN=C2C)c1O", "note": "(stereo not drawn)", "Potency": "inconclusive: 0.651 µM [falling, partial curve, poor fit]"}
{"smiles": "O=C(O)/C=C/c1ccc2c(-c3ccccc3)onc2c1", "Potency": "inconclusive: 0.82 µM [activator, full curve, poor fit]"}
{"smiles": "O=C1CCCN1CCCNc1ncnc2c1[nH]c1ccccc12", "lipid storage change, negative = inhibition": "inconclusive: 24.7%"}
{"smiles": "CC(=O)Nc1sc2c(c1CN1CCN(c3ccccn3)CC1)CCCC2", "lipid storage change, negative = inhibition": "inconclusive: 10.2%"}
{"smiles": "Cc1ccc(OCCNC(=O)CNC(=O)c2ccc3c(c2)OCO3)cc1", "Potency": "inconclusive: 8.2 µM [activator, partial curve]"}
{"smiles": "Cc1cc(C)cc(N(C)S(=O)(=O)c2nnc(NC(=O)C(C)C)s2)c1", "lipid storage change, negative = inhibition": "inconclusive: -12.3%"}
{"smiles": "Cc1cccc(C(=O)Oc2cc(C)[nH]c(=O)c2[N+](=O)[O-])c1", "Potency": "inconclusive: 29.1 µM [activator, single point]"}
{"smiles": "O=C(O)CCCC(=O)Nc1ccccc1C(=O)N1CCOCC1", "Potency": "inconclusive: 29.1 µM [cytotoxic, single point]"}
{"smiles": "Cc1ccc(C)c(OCC(=O)Nc2ccccc2C(=O)NC2CC2)c1", "Potency": "inconclusive: 6.51 µM [falling, single point]"}
{"smiles": "C[C@H]1O[C@@H](n2cc(F)c(=O)[nH]c2=O)[C@H](O)[C@@H]1O", "lipid storage change, negative = inhibition": "inconclusive: 7.92%"}
{"smiles": "CCOc1ccc(CN(C)C(=O)CCNC(=O)c2ccco2)cc1", "lipid storage change, negative = inhibition": "inconclusive: 16.2%"}
{"smiles": "O=C(NNC(=O)c1ccccc1Cl)c1cccnc1", "lipid storage change, negative = inhibition": "inconclusive: 39.8%"}
{"smiles": "[O-][n+]1ccc(C2CC2)cc1", "lipid storage change, negative = inhibition": "inconclusive: -25.7%"}
{"smiles": "Cc1ccc(-n2cnn(-c3ccc([N+](=O)[O-])cc3[N+](=O)[O-])c2=O)cc1", "Potency": "inconclusive: 29.1 µM [falling, single point]"}
{"smiles": "Cc1ccccc1NC(=O)c1c([N+](=O)[O-])c(C(C)(C)C)nn1C", "lipid storage change, negative = inhibition": "inconclusive: 17.4%"}
{"smiles": "O=c1[nH]nc(-c2ccc(F)cc2)cc1Cc1ccccn1", "lipid storage change, negative = inhibition": "inconclusive: 57.5%"}
{"smiles": "CC(=O)C1=C(C)NC(=O)NC1c1ccc(Cl)cc1", "note": "(stereo not drawn)", "lipid storage change, negative = inhibition": "inconclusive: 41%"}
{"smiles": "Nc1nc(-c2ccccc2)cn1/N=C/c1ccccc1", "lipid storage change, negative = inhibition": "inactive"}
{"smiles": "CC1(C)CC(=O)C=C(Nc2ccc3c(c2)CCC3)C1", "Potency": "inconclusive: 18.4 µM [activator, partial curve, poor fit]"}
{"smiles": "COc1ccccc1OC(=O)CCc1nc2ccccc2s1", "lipid storage change, negative = inhibition": "inconclusive: -32.4%"}
{"smiles": "CCC(=O)OCCn1c(Br)nc2c1c(=O)[nH]c(=O)n2C", "lipid storage change, negative = inhibition": "inconclusive: 10.7%"}
{"smiles": "Cc1cccc(CCNC(=O)CCc2nc(-c3ccccc3F)no2)c1", "Potency": "inconclusive: 11.6 µM [rising, partial curve]"}
{"smiles": "COc1cc(/C=C/C(=O)NC(=O)c2ccccc2O)ccc1OC(C)=O", "lipid storage change, negative = inhibition": "inconclusive: -20.5%"}
{"smiles": "CSc1ccc(CN2C(=O)NC3(CCCCC3)C2=O)cc1", "lipid storage change, negative = inhibition": "inconclusive: -0.834%"}
{"smiles": "Cc1ccc(/C=C2/NC(=O)N(c3ccccc3)C2=O)o1", "Potency": "inconclusive: 29.1 µM [falling, single point]"}
{"smiles": "CCc1ccc(NC(=O)C2CCCN2S(=O)(=O)c2ccc3c(c2)C(C)(C)C(=O)N3C)cc1", "note": "(stereo not drawn)", "Potency": "inconclusive: 6.51 µM [falling, single point]"}
{"smiles": "COc1cccc(OCCOc2ccc(/C=C3\\C(=N)N4N=C(S(C)(=O)=O)SC4=NC3=O)cc2OC)c1", "Potency": "inconclusive: 29.1 µM [cytotoxic, single point]"}
{"smiles": "Cc1ccc(CNC(=O)c2ccc[nH]2)cc1", "lipid storage change, negative = inhibition": "inconclusive: 21.9%"}
{"smiles": "COc1ccccc1CCC(=O)OCC(=O)N1c2ccccc2NC(=O)C1(C)C", "lipid storage change, negative = inhibition": "inconclusive: 33.6%"}
{"smiles": "CC(C)(C)c1ccc(C(=O)OCC(=O)NC2CC2)cc1", "lipid storage change, negative = inhibition": "inactive"}
{"smiles": "CCCC[n+]1c2ccccc2cc2ccccc21", "lipid storage change, negative = inhibition": "inconclusive: -147%"}
{"smiles": "O=[N+]([O-])c1cc(S(=O)(=O)N2CCCC2)ccc1N/N=C1/CCCc2ccccc21", "Potency": "inconclusive: 5.8 µM [cytotoxic, full curve]"}
{"smiles": "Nc1nc(SCC(=O)NN(c2ccccc2)c2ccccc2)n[nH]1", "Potency": "inconclusive: 0.058 µM [activator, full curve]"}
{"smiles": "Cc1cccc(NC(=O)CSc2nnc([C@H](C)NC(=O)OC(C)(C)C)o2)c1C", "Potency": "inconclusive: 23.1 µM [activator, partial curve, poor fit]"}
